Patent publication US20240293352A1 (priority 2021, published 2024)

System: VSVD51

Substance: vanadium (IV) citrate [CDOS139]
- Viral titers recovered after admixing (in words): improved or similar to the control

Substance: vanadium (V) citrate [CDOS140]
- Viral titers recovered after admixing (in words): improved or similar to the control
